The expression values are mRNA levels of the gene; the protein chain is shown to identify it.
B1: Gdf15 (protein, UniProt Q9Z0J7 189-303, looked up)
Growth/differentiation factor …: SAHAHPRDSCPLGPGRCCHLETVQATLEDLGWSDWVLSPRQLQLSMCVGECPHLYRSANTHAQIKARLHGLQPDKVPAPCCVPSSYTPVVLMHRTDSGVSLQTYDDLVARGCHCA
B2: Csf3r (protein, UniProt P40223 26-837, looked up)
Granulocyte …: CGHIEISPPVVRLGDPVLASCTISPNCSKLDQQAKILWRLQDEPIQPGDRQHHLPDGTQESLITLPHLNYTQAFLFCLVPWEDSVQLLDQAELHAGYPPASPSNLSCLMHLTTNSLVCQWEPGPETHLPTSFILKSFRSRADCQYQGDTIPDCVAKKRQNNCSIPRKNLLLYQYMAIWVQAENMLGSSESPKLCLDPMDVVKLEPPMLQALDIGPDVVSHQPGCLWLSWKPWKPSEYMEQECELRYQPQLKGANWTLVFHLPSSKDQFELCGLHQAPVYTLQMRCIRSSLPGFWSPWSPGLQLRPTMKAPTIRLDTWCQKKQLDPGTVSVQLFWKPTPLQEDSGQIQGYLLSWSSPDHQGQDIHLCNTTQLSCIFLLPSEAQNVTLVAYNKAGTSSPTTVVFLENEGPAVTGLHAMAQDLNTIWVDWEAPSLLPQGYLIEWEMSSPSYNNSYKSWMIEPNGNITGILLKDNINPFQLYRITVAPLYPGIVGPPVNVYTFAGERAPPHAPALHLKHVGTTWAQLEWVPEAPRLGMIPLTHYTIFWADAGDHSFSVTLNISLHDFVLKHLEPASLYHVYLMATSRAGSTNSTGLTLRTLDPSDLNIFLGILCLVLLSTTCVVTWLCCKRRGKTSFWSDVPDPAHSSLSSWLPTIMTEETFQLPSFWDSSVPSITKITELEEDKKPTHWDSESSGNGSLPALVQAYVLQGDPREISNQSQPPSRTGDQVLYGQVLESPTSPGVMQYIRSDSTQPLLGGPTPSPKSYENIWFHSRPQETFVPQPPNQEDDCVFGPPFDFPLFQGLQVHGVEEQGGF
B3: Cxcl16 (protein, UniProt Q8BSU2 27-246, looked up)
C-X-C motif chemokine 16: NQGSVAGSCSCDRTISSGTQIPQGTLDHIRKYLKAFHRCPFFIRFQLQSKSVCGGSQDQWVRELVDCFERKECGTGHGKSFHHQKHLPQASTQTPEAAEGTPSDTSTPAHSQSTQHSTLPSGALSLNKEHTQPWEMTTLPSGYGLEARPEAEANEKQQDDRQQEAPGAGASTPAWVPVLSLLAIVFFLTAAMAYVLCNRRATQQNSAGLQLWYTPVEPRP
B4: Dcn (protein, UniProt P28654 31-354, looked up)
Decorin: DEASGIIPYDPDNPLISMCPYRCQCHLRVVQCSDLGLDKVPWDFPPDTTLLDLQNNKITEIKEGAFKNLKDLHTLILVNNKISKISPEAFKPLVKLERLYLSKNQLKELPEKMPRTLQELRVHENEITKLRKSDFNGLNNVLVIELGGNPLKNSGIENGAFQGLKSLSYIRISDTNITAIPQGLPTSLTEVHLDGNKITKVDAPSLKGLINLSKLGLSFNSITVMENGSLANVPHLRELHLDNNKLLRVPAGLAQHKYIQVVYLHNNNISAVGQNDFCRAGHPSRKASYSAVSLYGNPVRYWEIFPNTFRCVYVRSAIQLGNYK
B5: Cd14 (protein, UniProt P10810 16-336, looked up)
Monocyte differentiation …: SPAPPEPCELDEESCSCNFSDPKPDWSSAFNCLGAADVELYGGGRSLEYLLKRVDTEADLGQFTDIIKSLSLKRLTVRAARIPSRILFGALRVLGISGLQELTLENLEVTGTAPPPLLEATGPDLNILNLRNVSWATRDAWLAELQQWLKPGLKVLSIAQAHSLNFSCEQVRVFPALSTLDLSDNPELGERGLISALCPLKFPTLQVLALRNAGMETPSGVCSALAAARVQLQGLDLSHNSLRDAAGAPSCDWPSQLNSLNLSFTGLKQVPKGLPAKLSVLDLSYNRLDRNPSPDELPQVGNLSLKGNPFLDSESHSEKFN
B6: C1qb (protein, UniProt P14106 26-253, looked up)
Complement C1q subcomponent …: QSSCTGPPGIPGIPGVPGVPGSDGQPGTPGIKGEKGLPGLAGDLGEFGEKGDPGIPGTPGKVGPKGPVGPKGTPGPSGPRGPKGDSGDYGATQKVAFSALRTINSPLRPNQVIRFEKVITNANENYEPRNGKFTCKVPGLYYFTYHASSRGNLCVNLVRGRDRDSMQKVVTFCDYAQNTFQVTTGGVVLKLEQEEVVHLQATDKNSLLGIEGANSIFTGFLLFPDMDA
B7: Ccl24 (protein, UniProt Q9JKC0 27-119, looked up)
C-C motif chemokine 24: VTIPSSCCTSFISKKIPENRVVSYQLANGSICPKAGVIFITKKGHKICTDPKLLWVQRHIQKLDAKKNQPSKGAKAVRTKFAVQRRRGNSTEV
B8: Cxcl10 (protein, UniProt P17515 22-98, looked up)
C-X-C motif chemokine 10: IPLARTVRCNCIHIDDGPVRMRAIGKLEIIPASLSCPRVEIIATMKKNDEQRCLNPESKTIKNLMKAFSQKRSKRAP
B9: Hyal1 (protein, UniProt Q91ZJ9 53-462, looked up)
Hyaluronidase-1: SVVSNRPFITVWNGDTHWCLTEYGVDVDVSVFDVVANKEQSFQGSNMTIFYREELGTYPYYTPTGEPVFGGLPQNASLVTHLAHTFQDIKAAMPEPDFSGLAVIDWEAWRPRWAFNWDSKDIYRQRSMELVQAEHPDWPETLVEAAAKNQFQEAAEAWMAGTLQLGQVLRPRGLWGYYGFPDCYNNDFLSLNYTGQCPVFVRDQNDQLGWLWNQSYALYPSIYLPAALMGTEKSQMYVRHRVQEALRVAIVSRDPHVPVMPYVQIFYEMTDYLLPLEELEHSLGESAAQGVAGAVLWLSSDKTSTKESCQAIKAYMDSTLGPFIVNVTSAALLCSEALCSGHGRCVRHPSYPEALLTLNPASFSIELTHDGRPPSLKGTLSLKDRAQMAMKFRCRCYRGWRGKWCDKRGM
B10: Lcn2 (protein, UniProt P11672 21-200, looked up)
Neutrophil …: QDSTQNLIPAPSLLTVPLQPDFRSDQFRGRWYVVGLAGNAVQKKTEGSFTMYSTIYELQENNSYNVTSILVRDQDQGCRYWIRTFVPSSRAGQFTLGNMHRYPQVQSYNVQVATTDYNQFAMVFFRKTSENKQYFKITLYGRTKELSPELKERFTRFAKSLGLKDDNIIFSVPTDQCIDN

Test system: Npc1-/- mouse liver
Test: Liver gene expression microarray, Npc1-/- versus control mice (Affymetrix Mouse GeneChip 1.0 ST)
Settings: negative = lower in Npc1−/−
[1] = head prints "weeks" (column between 7 weeks and 11 weeks)

Row | Molecule | FC (fold-change of expression between Npc1−/− and control mice) (1 week of age) | FC (fold-change of expression between Npc1−/− and control mice) (5 weeks of age) | FC (fold-change of expression between Npc1−/− and control mice) (11 weeks of age) | FC (fold-change of expression between Npc1−/− and control mice) [1] | FC (fold-change of expression between Npc1−/− and control mice) (7 weeks of age) | FC (fold-change of expression between Npc1−/− and control mice) (3 weeks of age)
1 | B1 | 1.47 | 1.48 | 1.38 | 1.65 |  | 
2 | B2 |  | 1.33 | 1.88 | 2.02 | 1.85 | 
3 | B3 |  | 1.52 | 2.09 | 2.50 | 1.84 | 
4 | B4 |  | 1.34 | 1.94 | 1.70 | 1.39 | 
5 | B5 |  | 1.48 | 2.84 | 1.47 | 1.60 | 
6 | B6 |  | 1.34 | 2.36 | 1.32 | 1.46 | 
7 | B7 |  | −1.76 | −1.97 | −2.13 | −1.89 | 
8 | B8 |  | 2.31 |  | 2.09 | 2.37 | 2.57
9 | B9 |  | −1.87 |  | −1.45 | −1.35 | −1.86
10 | B10 |  | 1.93 | 5.25 | 4.46 | 3.52 | 

— patent publication US20140370521A1, “IDENTIFICATION OF TWO NOVEL BIOMARKERS FOR NIEMANN-PICK DISEASE TYPE C” (The USA , as Represented by the Secretary, Department of …, priority 2011, published 2014)
